Laboratory results: publication doi:10.1101/2022.05.24.493272
These are yes or no findings as the source states them, for the method shown. Binding seen in cells or lysates may run through a third protein. Some results given as binding are weak or reduced against the parent protein; the word gives no strength.

Sequences of proteins named here, by UniProt entry; tags and fusion partners are left off.
UniProt P06730: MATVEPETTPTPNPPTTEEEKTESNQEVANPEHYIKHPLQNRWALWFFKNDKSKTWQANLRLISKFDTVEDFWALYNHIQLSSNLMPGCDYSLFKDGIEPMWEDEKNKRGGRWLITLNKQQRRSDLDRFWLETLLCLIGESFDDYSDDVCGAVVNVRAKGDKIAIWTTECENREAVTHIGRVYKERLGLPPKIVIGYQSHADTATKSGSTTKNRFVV

Key:
[1] = molecular target: eukaryotic initiation factor eIF4E (human (endogenous in HCT-15 and SNG-M)) (UniProt P06730); experiment: co-IP
[2] = molecular target: eukaryotic initiation factor eIF4E (human (endogenous in HCT-15 and SNG-M)) (UniProt P06730); experiment: pull-down

- binding [1]: binds
- binding [2]: binds
B1: eIF4E binding protein 2 (4E-BP2) (protein, UniProt Q13542 1-120)
chain: MSSSAGSGHQPSQSRAIPTRTVAISDAAQLPHDYCTTPGGTLFSTTPGGTRIIYDRKFLLDRRNSPMAQTPPCHLPNIPGVTSPGTLIEDSKVEVNNLNNLNNHDRKHAVGDDAQFEMDI
